From patent publication US12000833B2, “Marker for predicting the sensitivity to PI3K inhibitors” (INSERM (INSTITUT NATIONAL DE LA SANTE ET DE LA RECHERCHE …, priority 2017, dated 2024)
At least one compound was matched to its structure with a doubt left.

Test system: phosphorylation of Akt
Assay: Serum (FBS)-stimulated phosphorylation of Akt and downstream effectors in Capan-1 cells
Format: cell-based, human
Details: Capan-1, serum stimulation; data not shown
Procedure: Light amino acid-labelled and heavy amino acid-labelled Capan-1 cells (respectively called thereafter “light” and “heavy” cells) were washed twice with phosphate buffer saline (PBS; SIGMA; D8537), trypsined (GE Healthcare; L11-002) and plated at a concentration of 2.5.10^6 cells in a 14.4 cm-diameter dish (Dutscher, 055063). After 48 h, cells were serum-starved during 16 h, over-night. Light and heavy cells were pre-treated respectively with inhibitors or their accordingly diluted vehicule (DMSO) (for drug description and used concentration) during 1 h, then stimulated or not for 10 min or 24 h with 2% dialysed FBS. […]
In pancreatic cancer, PI3K signalling is associated with a poor prognosis. […] Serum, which consist of a combination of RTK and GPCR stimuli mimicking physiopathological signalling, induces after 10 min a significant activation of class I PI3Ks as assessed by the phosphorylation of Akt and known downstream effectors PRAS40, S6K, S6 (data not shown). […] We thus chose these stimulation conditions to identify differential phosphoproteome across time in response to three PI3K iso form-selective drugs after SILAC metabolic labelling and enrichment in trypsine-based phosphopeptides by TiO2 beads allowing a robust S/T/Y phosphorylation quantification of thousands of proteins.

O=c1cc(N2CCOCC2)oc2c(-c3ccccc3)cccc12 [LY-294002]
pAkt and all downstream signals: completely abolish
